These results are taken from the supplement of paper PMC10849652.

By UniProt entry, the sequences of proteins in these tests, tags left out. Where a name states a change or a piece, a line headed by the entry shows the natural chain unless it says otherwise.
UniProt Q9BX70: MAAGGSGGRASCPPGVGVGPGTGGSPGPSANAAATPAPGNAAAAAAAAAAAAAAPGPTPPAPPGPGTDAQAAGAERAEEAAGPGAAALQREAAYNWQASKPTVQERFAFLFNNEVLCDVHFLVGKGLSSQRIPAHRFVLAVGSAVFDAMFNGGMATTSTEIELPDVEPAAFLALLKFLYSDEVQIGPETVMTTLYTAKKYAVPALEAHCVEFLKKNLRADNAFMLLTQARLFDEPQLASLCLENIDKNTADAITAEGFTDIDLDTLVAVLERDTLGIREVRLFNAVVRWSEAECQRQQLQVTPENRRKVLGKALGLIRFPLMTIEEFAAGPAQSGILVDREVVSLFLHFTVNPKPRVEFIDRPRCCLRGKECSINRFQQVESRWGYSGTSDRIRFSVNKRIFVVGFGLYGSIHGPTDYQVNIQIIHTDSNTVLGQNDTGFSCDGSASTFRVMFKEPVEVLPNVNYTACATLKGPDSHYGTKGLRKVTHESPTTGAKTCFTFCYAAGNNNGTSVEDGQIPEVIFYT
UniProt Q9NP55: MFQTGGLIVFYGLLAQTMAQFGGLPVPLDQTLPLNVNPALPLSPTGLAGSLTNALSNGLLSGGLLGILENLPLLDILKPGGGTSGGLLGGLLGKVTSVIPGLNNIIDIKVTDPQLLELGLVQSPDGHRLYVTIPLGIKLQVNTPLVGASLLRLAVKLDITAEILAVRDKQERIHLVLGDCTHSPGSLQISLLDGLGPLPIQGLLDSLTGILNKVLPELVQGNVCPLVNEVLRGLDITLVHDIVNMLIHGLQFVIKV
UniProt F5GXF5: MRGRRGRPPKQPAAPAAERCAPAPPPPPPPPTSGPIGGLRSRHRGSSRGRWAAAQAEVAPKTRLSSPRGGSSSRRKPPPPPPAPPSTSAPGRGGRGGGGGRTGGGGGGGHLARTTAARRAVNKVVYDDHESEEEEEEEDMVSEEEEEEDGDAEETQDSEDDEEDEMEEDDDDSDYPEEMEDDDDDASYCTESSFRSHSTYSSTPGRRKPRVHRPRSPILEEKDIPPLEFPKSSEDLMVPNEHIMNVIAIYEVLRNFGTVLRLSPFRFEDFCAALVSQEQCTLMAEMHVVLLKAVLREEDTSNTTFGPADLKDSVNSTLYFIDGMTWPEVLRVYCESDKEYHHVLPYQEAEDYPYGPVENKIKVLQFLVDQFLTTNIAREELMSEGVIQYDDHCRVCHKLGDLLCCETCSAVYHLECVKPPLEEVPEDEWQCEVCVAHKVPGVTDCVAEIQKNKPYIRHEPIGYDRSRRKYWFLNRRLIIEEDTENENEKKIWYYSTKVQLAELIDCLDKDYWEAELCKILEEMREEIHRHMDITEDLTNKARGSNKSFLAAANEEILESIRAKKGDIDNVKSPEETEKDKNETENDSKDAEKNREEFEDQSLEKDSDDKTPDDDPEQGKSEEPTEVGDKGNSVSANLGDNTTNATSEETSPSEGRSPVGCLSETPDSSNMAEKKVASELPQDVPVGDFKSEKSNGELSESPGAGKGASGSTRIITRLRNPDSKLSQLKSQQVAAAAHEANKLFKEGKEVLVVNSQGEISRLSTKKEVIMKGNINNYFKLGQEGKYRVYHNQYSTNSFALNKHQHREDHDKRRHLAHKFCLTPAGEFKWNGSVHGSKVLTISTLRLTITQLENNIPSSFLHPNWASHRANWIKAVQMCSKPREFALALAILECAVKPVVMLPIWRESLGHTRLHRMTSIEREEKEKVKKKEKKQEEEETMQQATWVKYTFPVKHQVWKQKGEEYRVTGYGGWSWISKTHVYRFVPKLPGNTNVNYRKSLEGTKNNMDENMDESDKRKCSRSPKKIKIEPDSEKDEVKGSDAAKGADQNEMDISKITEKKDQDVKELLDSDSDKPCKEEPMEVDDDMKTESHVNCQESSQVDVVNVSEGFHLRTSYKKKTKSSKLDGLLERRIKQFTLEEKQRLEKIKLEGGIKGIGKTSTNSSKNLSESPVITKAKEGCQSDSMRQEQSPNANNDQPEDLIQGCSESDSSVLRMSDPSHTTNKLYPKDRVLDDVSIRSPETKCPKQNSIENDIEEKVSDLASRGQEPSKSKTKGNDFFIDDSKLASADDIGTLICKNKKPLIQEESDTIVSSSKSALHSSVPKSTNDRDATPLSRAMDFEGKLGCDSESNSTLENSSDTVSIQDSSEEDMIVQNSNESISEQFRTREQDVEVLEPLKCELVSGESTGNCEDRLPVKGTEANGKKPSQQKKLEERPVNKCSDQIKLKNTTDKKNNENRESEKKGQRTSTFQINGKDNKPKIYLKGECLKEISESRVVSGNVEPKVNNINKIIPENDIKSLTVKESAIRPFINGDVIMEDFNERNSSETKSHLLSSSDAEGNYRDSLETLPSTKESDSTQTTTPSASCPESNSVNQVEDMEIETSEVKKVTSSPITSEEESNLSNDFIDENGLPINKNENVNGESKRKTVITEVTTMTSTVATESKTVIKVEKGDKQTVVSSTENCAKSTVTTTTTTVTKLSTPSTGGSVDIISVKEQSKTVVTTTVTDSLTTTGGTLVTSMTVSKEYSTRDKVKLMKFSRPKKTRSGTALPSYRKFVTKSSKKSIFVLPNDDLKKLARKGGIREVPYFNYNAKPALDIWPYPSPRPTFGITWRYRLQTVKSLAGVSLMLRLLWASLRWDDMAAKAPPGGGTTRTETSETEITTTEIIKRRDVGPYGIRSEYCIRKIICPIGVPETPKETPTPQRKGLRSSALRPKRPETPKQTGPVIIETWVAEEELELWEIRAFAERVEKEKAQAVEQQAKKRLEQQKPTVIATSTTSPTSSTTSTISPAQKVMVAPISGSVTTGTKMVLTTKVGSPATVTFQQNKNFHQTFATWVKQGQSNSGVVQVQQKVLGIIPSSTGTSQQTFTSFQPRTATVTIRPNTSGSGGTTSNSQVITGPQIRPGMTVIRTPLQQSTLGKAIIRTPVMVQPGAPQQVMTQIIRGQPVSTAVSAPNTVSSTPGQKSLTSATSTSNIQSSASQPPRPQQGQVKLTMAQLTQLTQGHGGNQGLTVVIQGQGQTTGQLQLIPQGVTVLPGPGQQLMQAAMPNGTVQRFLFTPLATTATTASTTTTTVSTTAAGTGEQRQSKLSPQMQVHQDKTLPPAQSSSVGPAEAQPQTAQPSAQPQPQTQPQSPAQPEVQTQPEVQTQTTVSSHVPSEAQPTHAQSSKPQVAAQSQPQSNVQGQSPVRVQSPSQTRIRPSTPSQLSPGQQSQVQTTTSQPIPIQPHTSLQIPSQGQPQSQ
UniProt Q9H0C5: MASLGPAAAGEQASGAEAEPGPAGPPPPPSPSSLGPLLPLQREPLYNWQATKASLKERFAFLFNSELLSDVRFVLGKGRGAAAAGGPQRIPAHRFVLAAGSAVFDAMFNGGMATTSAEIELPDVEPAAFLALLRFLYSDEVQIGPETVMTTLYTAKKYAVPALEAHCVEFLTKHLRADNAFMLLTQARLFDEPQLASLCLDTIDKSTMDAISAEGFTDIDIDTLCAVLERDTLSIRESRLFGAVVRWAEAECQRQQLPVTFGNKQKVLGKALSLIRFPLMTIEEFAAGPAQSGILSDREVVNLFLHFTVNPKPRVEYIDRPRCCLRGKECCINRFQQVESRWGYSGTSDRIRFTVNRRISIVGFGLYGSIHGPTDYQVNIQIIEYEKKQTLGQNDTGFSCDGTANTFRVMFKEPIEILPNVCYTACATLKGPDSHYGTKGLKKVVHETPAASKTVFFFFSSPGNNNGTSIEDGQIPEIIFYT
UniProt Q9H8M2, whole entry, looked up: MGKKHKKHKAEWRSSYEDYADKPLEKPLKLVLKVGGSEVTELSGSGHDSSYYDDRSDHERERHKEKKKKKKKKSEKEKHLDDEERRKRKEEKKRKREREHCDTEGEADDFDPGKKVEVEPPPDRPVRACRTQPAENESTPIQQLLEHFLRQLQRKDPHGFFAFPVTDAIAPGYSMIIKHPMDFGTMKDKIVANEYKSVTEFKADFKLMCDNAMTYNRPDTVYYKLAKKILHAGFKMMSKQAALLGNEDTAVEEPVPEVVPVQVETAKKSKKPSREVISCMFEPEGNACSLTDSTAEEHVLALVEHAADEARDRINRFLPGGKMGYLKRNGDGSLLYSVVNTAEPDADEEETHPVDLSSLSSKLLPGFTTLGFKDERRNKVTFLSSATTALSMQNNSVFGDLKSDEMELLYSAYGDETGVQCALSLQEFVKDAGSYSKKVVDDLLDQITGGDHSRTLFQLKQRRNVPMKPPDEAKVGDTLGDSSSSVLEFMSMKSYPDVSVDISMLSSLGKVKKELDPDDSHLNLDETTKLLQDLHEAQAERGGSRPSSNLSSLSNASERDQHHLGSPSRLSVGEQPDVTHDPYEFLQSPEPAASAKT
UniProt Q9NWD9: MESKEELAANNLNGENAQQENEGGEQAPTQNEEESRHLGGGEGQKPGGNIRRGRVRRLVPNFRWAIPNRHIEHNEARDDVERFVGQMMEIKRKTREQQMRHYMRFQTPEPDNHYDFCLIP
UniProt Q96DR5: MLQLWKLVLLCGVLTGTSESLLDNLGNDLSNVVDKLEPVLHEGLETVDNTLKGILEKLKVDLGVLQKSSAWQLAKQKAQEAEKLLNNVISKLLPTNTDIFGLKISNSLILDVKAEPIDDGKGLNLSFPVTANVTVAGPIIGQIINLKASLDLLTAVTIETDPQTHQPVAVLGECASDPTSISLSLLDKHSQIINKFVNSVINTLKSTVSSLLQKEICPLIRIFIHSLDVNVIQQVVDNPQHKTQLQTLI
UniProt Q8N9N5: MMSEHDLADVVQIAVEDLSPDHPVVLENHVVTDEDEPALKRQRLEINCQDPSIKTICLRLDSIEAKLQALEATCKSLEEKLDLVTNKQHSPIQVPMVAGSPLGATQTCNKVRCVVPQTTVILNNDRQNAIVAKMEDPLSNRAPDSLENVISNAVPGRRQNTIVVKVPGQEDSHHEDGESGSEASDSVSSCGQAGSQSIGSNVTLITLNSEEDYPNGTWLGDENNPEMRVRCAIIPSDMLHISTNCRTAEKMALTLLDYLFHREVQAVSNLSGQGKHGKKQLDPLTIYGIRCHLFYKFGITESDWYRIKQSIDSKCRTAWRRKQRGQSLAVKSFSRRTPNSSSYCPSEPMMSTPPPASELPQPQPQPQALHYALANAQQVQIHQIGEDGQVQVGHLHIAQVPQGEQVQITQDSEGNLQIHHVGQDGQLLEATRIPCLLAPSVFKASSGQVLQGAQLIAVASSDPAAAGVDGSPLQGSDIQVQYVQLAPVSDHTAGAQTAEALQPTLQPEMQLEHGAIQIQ
UniProt O60513: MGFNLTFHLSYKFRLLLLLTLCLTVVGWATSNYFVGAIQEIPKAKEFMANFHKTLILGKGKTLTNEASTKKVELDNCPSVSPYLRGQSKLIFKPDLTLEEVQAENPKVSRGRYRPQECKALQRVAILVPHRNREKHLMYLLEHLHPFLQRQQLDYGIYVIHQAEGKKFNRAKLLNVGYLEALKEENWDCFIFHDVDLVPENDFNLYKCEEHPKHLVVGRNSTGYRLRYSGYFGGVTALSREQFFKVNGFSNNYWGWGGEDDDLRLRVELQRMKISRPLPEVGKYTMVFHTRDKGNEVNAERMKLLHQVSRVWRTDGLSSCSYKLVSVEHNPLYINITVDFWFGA
UniProt Q8WY36: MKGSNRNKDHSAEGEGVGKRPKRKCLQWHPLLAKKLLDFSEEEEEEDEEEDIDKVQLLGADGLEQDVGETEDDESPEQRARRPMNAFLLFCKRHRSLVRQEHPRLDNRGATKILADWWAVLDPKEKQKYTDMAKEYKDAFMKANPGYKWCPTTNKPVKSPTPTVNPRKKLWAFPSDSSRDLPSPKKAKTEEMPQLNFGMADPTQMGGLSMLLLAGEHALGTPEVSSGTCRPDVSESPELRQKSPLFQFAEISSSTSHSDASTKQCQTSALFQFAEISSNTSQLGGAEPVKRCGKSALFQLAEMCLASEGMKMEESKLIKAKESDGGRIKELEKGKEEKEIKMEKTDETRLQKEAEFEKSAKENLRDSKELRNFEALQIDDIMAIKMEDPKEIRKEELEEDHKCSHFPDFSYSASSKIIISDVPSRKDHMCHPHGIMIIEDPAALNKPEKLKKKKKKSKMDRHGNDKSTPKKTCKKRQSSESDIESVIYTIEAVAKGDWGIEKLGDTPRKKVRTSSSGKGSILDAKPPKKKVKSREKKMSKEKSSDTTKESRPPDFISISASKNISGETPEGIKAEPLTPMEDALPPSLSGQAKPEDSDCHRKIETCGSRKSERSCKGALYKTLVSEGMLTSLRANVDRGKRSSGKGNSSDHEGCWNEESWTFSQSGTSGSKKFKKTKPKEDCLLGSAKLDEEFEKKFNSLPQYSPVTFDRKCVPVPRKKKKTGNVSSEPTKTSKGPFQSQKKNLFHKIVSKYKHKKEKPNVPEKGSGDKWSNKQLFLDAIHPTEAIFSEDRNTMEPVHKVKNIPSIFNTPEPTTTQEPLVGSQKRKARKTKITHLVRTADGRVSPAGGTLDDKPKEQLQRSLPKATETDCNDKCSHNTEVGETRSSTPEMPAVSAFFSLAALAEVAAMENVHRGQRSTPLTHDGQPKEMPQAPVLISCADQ

This is one part of the list.

Compound in this assay: NC1(c2ccc(-c3nc4ccn5c(=O)[nH]nc5c4cc3-c3ccccc3)cc2)CCC1
As to the kind of experiment: log2 fold change, soluble protein after heating vs DMSO (PISA); higher = thermal stabilisation; K562 lysate, 10 uM; active = over 0.2 and 3.5 SD of the protein, either way, in both replicates (recomputed). In outline:
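Thermal stability, expressed as log-two fold change relative to solvent controls, is given from duplicates. Crude K562 extract in PBS pH 7.4 with 1 mM MgCl2, at 1 mg/mL protein, was treated with 10 μM compound for 30 min and heated in aliquots for 3 min across 48°C-58°C. After pooling, adjustment to 0.5% NP-40 at 4°C and centrifugation at 21,000xg for 90 min, supernatant protein was measured by TMTpro 16plex LC-MS/MS with channel sums equalised.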
For the target BTBD2 (UniProt Q9BX70), the log2 fold change is inactive: -0.117.

Take BEGAIN, A0A1B0GVM0: the log2 fold change is inactive: -0.05.

With BPIFA1 (UniProt Q9NP55), the log2 fold change was inactive: 1.11.

As for BAG6 (UniProt F6WML8), the log2 fold change was inactive: -0.137.

As to BHLHE40 (UniProt O14503), the log2 fold change was inactive: -0.109.

Consider BPNT1 (UniProt A6NF51), for which the log2 fold change is inactive: -0.028.

For BPTF (UniProt F5GXF5), the log2 fold change is inactive: -0.003.

Turning to BTBD1 (UniProt Q9H0C5), the log2 fold change is inactive: 0.049.

Regarding BRD9 (UniProt Q9H8M2), the log2 fold change is inactive: 0.074.

For the target BEX4 (UniProt Q9NWD9), the log2 fold change was inactive: -0.087.

Consider BPIFA2 (UniProt Q96DR5), for which the log2 fold change is inactive: 1.9.

In the case of BTG3 isoform 2 (UniProt Q14201), the log2 fold change is inactive: 0.279.

With B4GAT1 (UniProt O43505), the log2 fold change was inactive: -0.006.

On to BBS7 (UniProt Q8IWZ6), for which the log2 fold change was inactive: 0.14.

Take B4GALT7 (UniProt Q9UBV7): the log2 fold change was inactive: -0.018.

Turning to BANP isoform 7 (UniProt Q8N9N5), the log2 fold change was inactive: 0.06.

In the case of B4GALT4 (UniProt O60513), the log2 fold change is inactive: -0.117.

Regarding BBX (UniProt Q8WY36), the log2 fold change was inactive: 0.077.

With BCORL1 isoform 3 (UniProt Q5H9F3), the log2 fold change is inactive: -0.091.
